{"source": "PubChem BioAssay AID1224828 (NIAID, 2016)", "test": "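Knock-downs that increase or decrease LPS-induced p65 nuclear translocation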 (primary screen)", "system": "mouse RAW264.7 G9 macrophage reporter cells (GFP-p65, Tnf promoter-mCherry)", "reagent": "siRNA pool against mouse genes, 100 nM", "duration": "2 days siRNA transfection, then 40 min LPS before fixation", "conditions": "LPS (Salmonella minnesota R595) at 10 ng/ml", "detection": "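Imaged p65 nuclear translocation ratio, normalised to the plate median, converted to robust z-scores and averaged across two replicates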", "scale": "p65 translocation robust z-score: higher = more nuclear NF-kappaB p65 after LPS than the plate median; nuclear/cytoplasmic p65 ratio: higher = more nuclear NF-kappaB p65", "active means": "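Called active when z exceeds 3.3 or falls under -1.56 (median of Tlr4 controls), giving activity score of at least 50; no calls for control wells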", "meaning of the calls": "active = hit (p65 shift raised or lowered); inactive = no clear change", "note": "This is one part, drawn at random, of about 17,000 reagents. 762 of them (4.5%) were called active. 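Active calls include both raised and lowered p65 entry, mostly lowered; wells with fewer than 50 cells lack a z-score.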 Raw values vary from plate to plate and are shown uncorrected. A number with no mark means an inactive call. Some reagents were tested in more than one well and are listed for each."}
{"target":"Pef1 (GeneID 67898)","p65 translocation robust z-score":-0.86,"nuclear/cytoplasmic p65 ratio, rep 1":1.3,"nuclear/cytoplasmic p65 ratio, rep 2":1.33,"low cell count flag":"enough cells to score"}
{"target":"Zfp592 (GeneID 233410)","p65 translocation robust z-score":-1.1,"nuclear/cytoplasmic p65 ratio, rep 1":1.22,"nuclear/cytoplasmic p65 ratio, rep 2":1.16,"low cell count flag":"enough cells to score"}
{"target":"Or5p56 (GeneID 258928)","p65 translocation robust z-score":0.17,"nuclear/cytoplasmic p65 ratio, rep 1":1.47,"nuclear/cytoplasmic p65 ratio, rep 2":1.26,"low cell count flag":"enough cells to score"}
{"target":"Esm1 (GeneID 71690)","p65 translocation robust z-score":-0.43,"nuclear/cytoplasmic p65 ratio, rep 1":1.5,"nuclear/cytoplasmic p65 ratio, rep 2":1.23,"low cell count flag":"enough cells to score"}
{"target":"Or8b1d (GeneID 258781)","nuclear/cytoplasmic p65 ratio, rep 1":1.32,"nuclear/cytoplasmic p65 ratio, rep 2":1.02,"low cell count flag":"fewer than 50 cells per well; well left out of scoring"}
{"target":"Nup42 (GeneID 231042)","p65 translocation robust z-score":0.57,"nuclear/cytoplasmic p65 ratio, rep 1":1.93,"nuclear/cytoplasmic p65 ratio, rep 2":1.5,"low cell count flag":"enough cells to score"}
{"target":"Nipa1 (GeneID 233280)","nuclear/cytoplasmic p65 ratio, rep 1":1.59,"nuclear/cytoplasmic p65 ratio, rep 2":1.22,"low cell count flag":"fewer than 50 cells per well; well left out of scoring"}
{"target":"Rpl41 (GeneID 67945)","nuclear/cytoplasmic p65 ratio, rep 1":1.22,"nuclear/cytoplasmic p65 ratio, rep 2":1.08,"low cell count flag":"fewer than 50 cells per well; well left out of scoring"}
{"target":"Psmc4 (GeneID 23996)","nuclear/cytoplasmic p65 ratio, rep 1":1.51,"nuclear/cytoplasmic p65 ratio, rep 2":1.26,"low cell count flag":"fewer than 50 cells per well; well left out of scoring"}
{"target":"Dnajc14 (GeneID 74330)","p65 translocation robust z-score":-0.53,"nuclear/cytoplasmic p65 ratio, rep 1":1.52,"nuclear/cytoplasmic p65 ratio, rep 2":1.55,"low cell count flag":"enough cells to score"}
{"target":"Akt1 (GeneID 11651)","p65 translocation robust z-score":1.28,"nuclear/cytoplasmic p65 ratio, rep 1":1.83,"nuclear/cytoplasmic p65 ratio, rep 2":1.55,"low cell count flag":"enough cells to score"}
{"target":"Akt1 (GeneID 11651)","p65 translocation robust z-score":1,"nuclear/cytoplasmic p65 ratio, rep 1":1.72,"nuclear/cytoplasmic p65 ratio, rep 2":1.65,"low cell count flag":"enough cells to score"}
{"target":"Slc17a2 (GeneID 218103)","p65 translocation robust z-score":0.61,"nuclear/cytoplasmic p65 ratio, rep 1":1.8,"nuclear/cytoplasmic p65 ratio, rep 2":1.76,"low cell count flag":"enough cells to score"}
{"target":"Eif5b (GeneID 226982)","p65 translocation robust z-score":-0.62,"nuclear/cytoplasmic p65 ratio, rep 1":1.3,"nuclear/cytoplasmic p65 ratio, rep 2":1.29,"low cell count flag":"enough cells to score"}
{"target":"Sel1l (GeneID 20338)","p65 translocation robust z-score":-0.39,"nuclear/cytoplasmic p65 ratio, rep 1":1.49,"nuclear/cytoplasmic p65 ratio, rep 2":1.5,"low cell count flag":"enough cells to score"}
{"target":"Golim4 (GeneID 73124)","p65 translocation robust z-score":-0.5,"nuclear/cytoplasmic p65 ratio, rep 1":1.56,"nuclear/cytoplasmic p65 ratio, rep 2":1.48,"low cell count flag":"enough cells to score"}
{"target":"Cpn1 (GeneID 93721)","p65 translocation robust z-score":0.92,"nuclear/cytoplasmic p65 ratio, rep 1":1.57,"nuclear/cytoplasmic p65 ratio, rep 2":1.52,"low cell count flag":"enough cells to score"}
{"target":"Ctf2 (GeneID 244218)","p65 translocation robust z-score":0.13,"nuclear/cytoplasmic p65 ratio, rep 1":1.58,"nuclear/cytoplasmic p65 ratio, rep 2":1.82,"low cell count flag":"enough cells to score"}
{"target":"Smad7 (GeneID 17131)","p65 translocation robust z-score":1.92,"nuclear/cytoplasmic p65 ratio, rep 1":1.94,"nuclear/cytoplasmic p65 ratio, rep 2":1.66,"low cell count flag":"enough cells to score"}
{"target":"4930578I06Rik (GeneID 67750)","p65 translocation robust z-score":-0.24,"nuclear/cytoplasmic p65 ratio, rep 1":1.23,"nuclear/cytoplasmic p65 ratio, rep 2":1.22,"low cell count flag":"enough cells to score"}
{"target":"Ap5m1 (GeneID 74385)","nuclear/cytoplasmic p65 ratio, rep 1":1.12,"nuclear/cytoplasmic p65 ratio, rep 2":1.14,"low cell count flag":"fewer than 50 cells per well; well left out of scoring"}

Part of the list above in another layout.
Sel1l (GeneID 20338)
- p65 translocation robust z-score: -0.39
- nuclear/cytoplasmic p65 ratio, rep 1: 1.49
- nuclear/cytoplasmic p65 ratio, rep 2: 1.5
- low cell count flag: enough cells to score

Golim4 (GeneID 73124)
- p65 translocation robust z-score: -0.5
- nuclear/cytoplasmic p65 ratio, rep 1: 1.56
- nuclear/cytoplasmic p65 ratio, rep 2: 1.48
- low cell count flag: enough cells to score
